The other results are listed elsewhere or left out.

For the assay, the target named is T1, OsSMF1 (Oryza sativa, UniProt Q6ZLB0 1-436).
T1 sequence: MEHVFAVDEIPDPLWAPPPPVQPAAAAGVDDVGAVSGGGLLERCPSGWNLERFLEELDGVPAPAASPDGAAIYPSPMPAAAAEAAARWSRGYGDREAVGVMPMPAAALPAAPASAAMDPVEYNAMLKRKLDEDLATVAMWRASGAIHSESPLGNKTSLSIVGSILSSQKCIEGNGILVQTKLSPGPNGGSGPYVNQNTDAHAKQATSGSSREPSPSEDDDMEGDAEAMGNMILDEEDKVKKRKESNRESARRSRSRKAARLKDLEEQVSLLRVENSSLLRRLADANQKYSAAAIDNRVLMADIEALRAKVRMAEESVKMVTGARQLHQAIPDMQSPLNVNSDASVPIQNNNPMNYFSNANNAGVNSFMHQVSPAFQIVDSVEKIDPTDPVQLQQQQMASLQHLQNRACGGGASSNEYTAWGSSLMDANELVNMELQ
In words: protein-binding microarray (RPBM); PBS, 2% BSA, 51.3 ng/ul salmon testes DNA, 50 uM zinc acetate, 200 nM TF, 25 C, 1 h; high values mean tight binding. The conditions noted are these: protein: recombinant; tags: N-terminal polyhistidine and DsRed monomer fusion (pET32a); chain copies: 2; label: CyDye5-dUTP incorporated in the synthesized complementary strand; 3' TTTTT single-stranded linker to array surface; dsDNA, one strand shown. The method in brief:
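Binding signal here means per-feature fluorescence intensity in arbitrary units. The values were read on an Axon 4000B scanner after a custom Agilent array, double-stranded by primer extension with Cy5-dUTP, was incubated with 200 nM protein at 25 °C for 1 h in PBS with 2% BSA, salmon testes DNA and 50 µM zinc acetate, then washed. The proteins were transcription factors with an N-terminal polyhistidine tag and DsRed, expressed in E. coli BL21-CodonPlus and purified on Ni–NTA.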
For the sequence “TGCACACCCACCCACAGATTCACCATATTGGCGTGGCGGTCGGAGTCACCTAGTGCAG”, the binding signal is 4620 fluorescence intensity (a.u.). With “GCTCCTCACCCGCCGTGAACCCAACCCACATCCGCTGACGCGGAGTCACCTAGTGCAG”, the binding signal is 3300 fluorescence intensity (a.u.).

In the case of “TCTGCACAGATCTATGGCCTATGGGGACTGGAGTCAGCACCGGAGTCACCTAGTGCAG”, the binding signal was 4790 fluorescence intensity (a.u.). In the case of “CTCCGCCAGGCGCCCGCCTTGCTGGAGTTGCTGACGAAGGCGGAGTCACCTAGTGCAG”, the binding signal was 4060 fluorescence intensity (a.u.). In the case of “TTTCTATATAAACTATATACTCTACTTCTAATATTCCTTACGGAGTCACCTAGTGCAG” it was 3160 fluorescence intensity (a.u.); in that of “CGCATTGAGCCATTTACACTACACACACAGCCCCAGATTCCGGAGTCACCTAGTGCAG”, 3420 fluorescence intensity (a.u.); in that of “GTTTGGTGGGAAACACACATCATCCTTGGCACTACTGTCACGGAGTCACCTAGTGCAG”, 5210 fluorescence intensity (a.u.). Turning to “AGGCCGCCCACACTATTGGGCCGCCTCATGGACCACGTGTCGGAGTCACCTAGTGCAG”, the binding signal was 7330 fluorescence intensity (a.u.).

In the case of “CTGGCAGTGGAGCCACCGTGTCACTGTCACCTACCAAAGCCGGAGTCACCTAGTGCAG”, the binding signal is 7780 fluorescence intensity (a.u.). For “TCGAGTGGTCCCATATAAGTGATACGTGGACAAATAAAGTCGGAGTCACCTAGTGCAG”, the binding signal is 5520 fluorescence intensity (a.u.). As for “TAATAATAAATGACGCCGATGACGTTTAAACAATCATTCGCGGAGTCACCTAGTGCAG”, the binding signal is 7480 fluorescence intensity (a.u.). In the case of “TCGTTGGTTGGCCCAGTGGTGAATTGACTCAGTTGATTGCCGGAGTCACCTAGTGCAG” it was 4550 fluorescence intensity (a.u.). In the case of “TCCTTACCCTATAAAATGGCCGTGTGACACATCCCAAATGCGGAGTCACCTAGTGCAG”, the binding signal was 4080 fluorescence intensity (a.u.). “TATGCATACGGTCAGACGTACACGTATGTCGTACACGCAACGGAGTCACCTAGTGCAG”: the binding signal is 4820 fluorescence intensity (a.u.). For the sequence “AAAGTCCATTCAACTCACCCACGTAGGAAGGTGGAAGCGGCGGAGTCACCTAGTGCAG”, the binding signal is 3810 fluorescence intensity (a.u.).

Consider “CTTGAGAGTGTTTCAACTGCCACTGCGCCACGTCAGTTTACGGAGTCACCTAGTGCAG”, for which the binding signal is 21900 fluorescence intensity (a.u.). As to “TCGCGTGTACTGATCGCGTCAGCCTGACGTGTGATACTGACGGAGTCACCTAGTGCAG”, the binding signal was 10800 fluorescence intensity (a.u.). For the sequence “GCGGTTTATGTACACGTCAGCATTTTGCTTCCTTCCTTCCCGGAGTCACCTAGTGCAG”, the binding signal is 47800 fluorescence intensity (a.u.). For “TTATTAACGATGGTTTGGTTGTGAGGTGTTGGAGTCCTTTCGGAGTCACCTAGTGCAG”, the binding signal was 3300 fluorescence intensity (a.u.). For the sequence “CTGGCGGAGGTCCTCTTCCCCACGTCGACAAGCTTCTCCTCGGAGTCACCTAGTGCAG”, the binding signal is 4160 fluorescence intensity (a.u.). As for “AACTCGTCGACAGCCCTAATGACACGTGAGGTCACATGGGCGGAGTCACCTAGTGCAG”, the figure is 5910 fluorescence intensity (a.u.); as for “GCATAGACCTGTTCCACGTTAGGTACGAACAGGCAGAGGCCGGAGTCACCTAGTGCAG”, 3140 fluorescence intensity (a.u.); as for “CTACTAATGTTTAGTTTATTGTGCTAAGCTGTCAAAATGACGGAGTCACCTAGTGCAG”, 4060 fluorescence intensity (a.u.). As to “CAATGCTAATACCTTCCACTGCTGACTGATTACCTTTTCTCGGAGTCACCTAGTGCAG”, the binding signal was 5200 fluorescence intensity (a.u.). Take “ACCCAACCAAACACGGACTGGGATTTGGTGACATTCTCCCCGGAGTCACCTAGTGCAG”: the binding signal is 3470 fluorescence intensity (a.u.). In the case of “GTGGTTTTCAAAAGTGCCACGTAATCTAAAGACGTTTGGACGGAGTCACCTAGTGCAG”, the binding signal is 8910 fluorescence intensity (a.u.). With “CGCATCCCTCAACTCAGCGTAGAACCCACGTGAGTTCCAACGGAGTCACCTAGTGCAG”, the binding signal is 4290 fluorescence intensity (a.u.). For “GTATGCCGTGCTGCCAAACTAGTTGGATAACAAAGATTCCCGGAGTCACCTAGTGCAG”, the binding signal is 4000 fluorescence intensity (a.u.). Take “TGTGACCTCGTATATCAGTAAGTATATAGATGTAGGCCTTCGGAGTCACCTAGTGCAG”: the binding signal is 3340 fluorescence intensity (a.u.).

“TTGGGCGGTACTGAGTACTGACTCCACGTCCCTGTAACAACGGAGTCACCTAGTGCAG”: the binding signal was 6090 fluorescence intensity (a.u.). “CCATTCATCAACTACACCTCACTCTCTGGCGCGTCTGCCTCGGAGTCACCTAGTGCAG”: the binding signal was 4370 fluorescence intensity (a.u.). For the sequence “TGGTCGTCTCGTCGTCATCGCCTCGTCGCCTCATCTCGATCGGAGTCACCTAGTGCAG”, the binding signal is 4540 fluorescence intensity (a.u.).

Take “CTGCATGAATCTTAATTTGCGTACGCGTGTGGCATTATCTCGGAGTCACCTAGTGCAG”: the binding signal was 3190 fluorescence intensity (a.u.). Regarding “AAAAGGTTGGTGATGGGTTGAGCGTGGAAGCATCACCGTCCGGAGTCACCTAGTGCAG”, the binding signal was 3250 fluorescence intensity (a.u.). For the sequence “ACCCGGTTTTGTCAGCTGACTCAGTATAGGTCCCACATGTCGGAGTCACCTAGTGCAG”, the binding signal is 4660 fluorescence intensity (a.u.). For “TCTCTGTTCTAAAATAAAACTATTTCTATCACTTAAACTTCGGAGTCACCTAGTGCAG”, the binding signal is 3460 fluorescence intensity (a.u.). For “TCGTCGTCGTCGTCGTCATCGTCTTCGTCCGGGGCCAGGTCGGAGTCACCTAGTGCAG”, the binding signal is 3660 fluorescence intensity (a.u.).

As to “ATGAGTTTTCTGGAGAGGCGAACACGTCCGCGCCTCCGCGCGGAGTCACCTAGTGCAG”, the binding signal is 4560 fluorescence intensity (a.u.). In the case of “TCTACGTATGAGTCAATACCACCCATACCTGTAAGACACCCGGAGTCACCTAGTGCAG”, the binding signal was 3870 fluorescence intensity (a.u.). Consider “AGAACTTCCCCTTCTCAGTGACATATGTTCCATTATCCGCCGGAGTCACCTAGTGCAG”, for which the binding signal is 4470 fluorescence intensity (a.u.). On to “GTATTTATAGAAGGTGAGTATACACGTGTGTATATGAGCGCGGAGTCACCTAGTGCAG”, for which the binding signal is 9970 fluorescence intensity (a.u.). Regarding “ACATATAAGCGCCACGTCAATACCACACCAGATGAAAACCCGGAGTCACCTAGTGCAG”, the binding signal is 10800 fluorescence intensity (a.u.).
